Measurements reported in PubChem BioAssay AID1259424 (University of Nebraska Medical Center, 2018).
The whole screen tested about 14,000 reagents; shown is a part drawn at random. 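Higher correlation or smaller distance means closer resemblance to KSR1 loss; control wells, including KSR1 knockdowns, recur on many plates.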 Not all columns of the deposit are shown. The record does not give: the time to read-out.

- Purpose: 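Rank knockdowns across the genome by resemblance to the KSR1 depletion profile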 (primary screen)
- Cell system: human HCT116 colon cancer cells
- Reagents: siRNA pool against human genes, 50 nM
- Read-out: 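Log2 levels of six mRNAs (branched-DNA multiplex), adjusted by two reference genes and the non-targeting median, then scored against the average KSR1 knockdown pattern as Pearson r and euclidean distance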
- Direction: mean correlation with KSR1 profile: higher = expression change more like KSR1 knockdown; mean distance from KSR1 profile: higher = expression change less like KSR1 knockdown

With PFKFB4 (6-phosphofructo-2-kinase/fructose-2,6-biphosphatase 4), how do the results read?
mean correlation with KSR1 profile: 0.22; mean distance from KSR1 profile: 1.54

For SGTB, how do the results read?
mean correlation with KSR1 profile: -0.0243; mean distance from KSR1 profile: 1.43

What is on record for KANK2 (KN motif and ankyrin repeat domains 2)?
mean correlation with KSR1 profile: -0.324; mean distance from KSR1 profile: 2.16

With ST13 (ST13 Hsp70 interacting protein), how do the results read?
mean correlation with KSR1 profile: -0.125; mean distance from KSR1 profile: 1.68

With PARVA (parvin alpha), what does the deposit list?
mean correlation with KSR1 profile: 0.563; mean distance from KSR1 profile: 1.59

What did the screen give for FGGY (FGGY carbohydrate kinase domain containing)?
mean correlation with KSR1 profile: -0.0562; mean distance from KSR1 profile: 1.29

With ZNF592 (zinc finger protein 592), what does the deposit list?
mean correlation with KSR1 profile: -0.543; mean distance from KSR1 profile: 2.85

What did the screen give for DHX16 (DEAH-box helicase 16)?
mean correlation with KSR1 profile: -0.357; mean distance from KSR1 profile: 1.63

Which result is listed for CTSD (cathepsin D)?
mean correlation with KSR1 profile: 0.242; mean distance from KSR1 profile: 1.77

With KIDINS220 (kinase D interacting substrate 220), what was measured?
mean correlation with KSR1 profile: 0.48; mean distance from KSR1 profile: 1.47

For IST1 (IST1 factor associated with ESCRT-III), how do the results read?
mean correlation with KSR1 profile: -0.316; mean distance from KSR1 profile: 2.23

What did the screen give for CFAP20 (cilia and flagella associated protein 20)?
mean correlation with KSR1 profile: 0.199; mean distance from KSR1 profile: 1.52

What did the screen give for LY6K (lymphocyte antigen 6 family member K)?
mean correlation with KSR1 profile: 0.811; mean distance from KSR1 profile: 2.26

With GSTO1 (glutathione S-transferase omega 1), what does the deposit list?
mean correlation with KSR1 profile: 0.133; mean distance from KSR1 profile: 1.63

Only “mean correlation with KSR1 profile”, for 4 of the entries above:
ZNF592 (zinc finger protein 592): -0.543
DHX16 (DEAH-box helicase 16): -0.357
CTSD (cathepsin D): 0.242
KIDINS220 (kinase D interacting substrate 220): 0.48

Additional records:
For MAML3 (mastermind like transcriptional coactivator 3), what was measured?
mean correlation with KSR1 profile: -0.0484; mean distance from KSR1 profile: 5.11

For UBIAD1 (UbiA prenyltransferase domain containing 1), what does the deposit list?
mean correlation with KSR1 profile: -0.173; mean distance from KSR1 profile: 2.92

For SLC28A3, what was measured?
mean correlation with KSR1 profile: -0.324; mean distance from KSR1 profile: 3.87

What did the screen give for PTPRM (protein tyrosine phosphatase receptor type M)?
mean correlation with KSR1 profile: -0.14; mean distance from KSR1 profile: 2.55

What did the screen give for BBS9 (Bardet-Biedl syndrome 9)?
mean correlation with KSR1 profile: 0.163; mean distance from KSR1 profile: 2.11

Which result is listed for RRP1 (ribosomal RNA processing 1)?
mean correlation with KSR1 profile: -0.426; mean distance from KSR1 profile: 2.33

How did the screen score KRTAP4-4 (keratin associated protein 4-4)?
mean correlation with KSR1 profile: 0.628; mean distance from KSR1 profile: 2.21

For SSTR2 (somatostatin receptor 2), what was measured?
mean correlation with KSR1 profile: 0.0817; mean distance from KSR1 profile: 3.26

What did the screen give for DYNC2LI1 (dynein cytoplasmic 2 light intermediate chain 1)?
mean correlation with KSR1 profile: -0.482; mean distance from KSR1 profile: 3.17

With FAM20C (FAM20C golgi associated secretory pathway kinase), what does the deposit list?
mean correlation with KSR1 profile: -0.661; mean distance from KSR1 profile: 2.31

With ORC6 (origin recognition complex subunit 6), what does the deposit list?
mean correlation with KSR1 profile: 0.52; mean distance from KSR1 profile: 1.02

With AFG3L1P (AFG3 like matrix AAA peptidase subunit 1, pseudogene), how do the results read?
mean correlation with KSR1 profile: 0.156; mean distance from KSR1 profile: 2.01

With TRMT13 (tRNA methyltransferase 13), what was measured?
mean correlation with KSR1 profile: 0.489; mean distance from KSR1 profile: 2.28

What did the screen give for MYL12A (myosin light chain 12A)?
mean correlation with KSR1 profile: 0.123; mean distance from KSR1 profile: 2.71
